Test [1] concerns the target T1, Truncated, modified cytosolic-MFN2 (human Mitofusin-2, residues 1-19 and 401-705 deleted) (human).
T1 sequence: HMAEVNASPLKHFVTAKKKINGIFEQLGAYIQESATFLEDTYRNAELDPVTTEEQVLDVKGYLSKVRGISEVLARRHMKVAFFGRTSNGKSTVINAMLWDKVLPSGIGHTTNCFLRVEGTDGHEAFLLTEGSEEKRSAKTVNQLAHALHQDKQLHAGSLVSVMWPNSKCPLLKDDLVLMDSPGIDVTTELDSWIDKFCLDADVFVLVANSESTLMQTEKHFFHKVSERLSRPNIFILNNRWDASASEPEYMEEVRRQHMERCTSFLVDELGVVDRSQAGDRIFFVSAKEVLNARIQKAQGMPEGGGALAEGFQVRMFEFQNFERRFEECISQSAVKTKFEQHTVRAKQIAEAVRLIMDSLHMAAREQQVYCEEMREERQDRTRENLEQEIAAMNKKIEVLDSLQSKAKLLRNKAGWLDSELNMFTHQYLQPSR
Briefly: cross-linking; 50 µM DID and 50 µM MFN2 with 250-500 µM cross-linker (KMUS, SMCC, SMPB, DSG, BS3, BS(PEG)5, BS(PEG)9), 20 mM potassium phosphate pH 7.5, 100 mM NaCl, 1-2 h at 25 °C; SDS-PAGE, in-gel trypsin digest and LC-MS/MS of the ~75 kDa band; both purified.

Protein sequences, listed by entry. Tags and fused reporters are not part of them. Lines headed by an entry give the natural chain unless they say otherwise; changes in a name come on top. Residues count along the entry.
UniProt P21796: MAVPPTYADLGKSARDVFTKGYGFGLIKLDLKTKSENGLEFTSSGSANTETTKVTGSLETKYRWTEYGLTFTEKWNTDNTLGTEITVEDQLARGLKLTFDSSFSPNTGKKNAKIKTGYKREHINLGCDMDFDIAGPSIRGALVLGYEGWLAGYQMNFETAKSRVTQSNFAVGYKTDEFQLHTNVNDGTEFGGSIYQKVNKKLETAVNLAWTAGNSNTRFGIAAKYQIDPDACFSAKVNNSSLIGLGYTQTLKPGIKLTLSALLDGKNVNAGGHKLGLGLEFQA
UniProt P61586: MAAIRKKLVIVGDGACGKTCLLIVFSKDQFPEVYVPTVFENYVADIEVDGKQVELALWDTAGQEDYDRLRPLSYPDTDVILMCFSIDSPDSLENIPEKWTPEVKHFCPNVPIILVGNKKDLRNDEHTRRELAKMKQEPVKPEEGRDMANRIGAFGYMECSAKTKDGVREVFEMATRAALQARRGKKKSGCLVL
UniProt P38646, residues 47-679: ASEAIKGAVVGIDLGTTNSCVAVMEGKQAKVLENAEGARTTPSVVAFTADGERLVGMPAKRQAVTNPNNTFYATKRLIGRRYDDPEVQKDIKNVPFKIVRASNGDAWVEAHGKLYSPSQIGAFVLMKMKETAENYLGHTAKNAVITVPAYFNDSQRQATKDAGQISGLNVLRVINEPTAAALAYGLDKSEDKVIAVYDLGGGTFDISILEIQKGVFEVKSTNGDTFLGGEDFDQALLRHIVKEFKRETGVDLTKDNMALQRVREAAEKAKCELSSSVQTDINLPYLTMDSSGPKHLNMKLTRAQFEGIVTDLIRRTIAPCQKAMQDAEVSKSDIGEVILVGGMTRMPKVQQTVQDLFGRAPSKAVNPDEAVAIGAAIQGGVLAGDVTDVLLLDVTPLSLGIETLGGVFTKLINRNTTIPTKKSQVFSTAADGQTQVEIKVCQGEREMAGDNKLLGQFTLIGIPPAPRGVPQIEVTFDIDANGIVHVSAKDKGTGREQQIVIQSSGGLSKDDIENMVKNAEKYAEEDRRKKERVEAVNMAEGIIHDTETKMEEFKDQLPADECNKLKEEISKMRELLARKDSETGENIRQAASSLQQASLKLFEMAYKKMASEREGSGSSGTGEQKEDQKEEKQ
UniProt O60610: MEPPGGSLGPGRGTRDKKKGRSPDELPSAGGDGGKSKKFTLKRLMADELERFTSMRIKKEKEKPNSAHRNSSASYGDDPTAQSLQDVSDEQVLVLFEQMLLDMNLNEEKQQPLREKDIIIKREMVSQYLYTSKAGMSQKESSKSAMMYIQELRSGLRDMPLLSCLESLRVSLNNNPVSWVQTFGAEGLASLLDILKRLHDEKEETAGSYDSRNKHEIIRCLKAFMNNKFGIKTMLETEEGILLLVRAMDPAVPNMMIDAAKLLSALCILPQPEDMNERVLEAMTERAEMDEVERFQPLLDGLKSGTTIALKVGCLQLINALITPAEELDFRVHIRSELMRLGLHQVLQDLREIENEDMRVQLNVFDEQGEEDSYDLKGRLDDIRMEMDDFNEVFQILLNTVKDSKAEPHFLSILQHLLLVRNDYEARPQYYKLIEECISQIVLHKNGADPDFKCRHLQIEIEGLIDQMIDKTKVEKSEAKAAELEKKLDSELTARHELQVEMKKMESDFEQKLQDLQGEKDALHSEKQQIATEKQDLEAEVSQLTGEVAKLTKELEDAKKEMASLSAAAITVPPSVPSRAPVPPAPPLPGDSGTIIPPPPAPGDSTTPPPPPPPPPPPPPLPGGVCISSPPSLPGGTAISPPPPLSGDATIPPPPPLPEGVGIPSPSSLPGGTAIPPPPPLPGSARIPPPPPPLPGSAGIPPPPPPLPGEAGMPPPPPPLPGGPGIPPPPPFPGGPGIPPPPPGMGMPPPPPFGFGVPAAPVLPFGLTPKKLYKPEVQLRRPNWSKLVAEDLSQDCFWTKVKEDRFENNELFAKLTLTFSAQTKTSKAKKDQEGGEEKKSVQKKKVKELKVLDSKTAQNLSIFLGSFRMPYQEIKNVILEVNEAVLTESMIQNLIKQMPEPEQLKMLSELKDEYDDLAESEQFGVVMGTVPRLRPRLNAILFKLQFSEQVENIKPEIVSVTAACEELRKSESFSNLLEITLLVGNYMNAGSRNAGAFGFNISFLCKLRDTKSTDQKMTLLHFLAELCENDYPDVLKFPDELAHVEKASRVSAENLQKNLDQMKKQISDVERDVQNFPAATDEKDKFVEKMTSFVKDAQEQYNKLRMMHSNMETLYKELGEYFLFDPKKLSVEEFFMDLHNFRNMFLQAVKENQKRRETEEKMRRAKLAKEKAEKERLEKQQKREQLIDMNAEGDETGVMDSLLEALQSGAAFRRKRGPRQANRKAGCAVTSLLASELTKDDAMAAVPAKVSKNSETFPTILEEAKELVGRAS

Test [2] has as its target T2, Mitofusin-2 (MFN2), endogenous human (human (endogenous in HiPSC-CMs, HMVECs, human heart)) (UniProt O95140).
T2 sequence: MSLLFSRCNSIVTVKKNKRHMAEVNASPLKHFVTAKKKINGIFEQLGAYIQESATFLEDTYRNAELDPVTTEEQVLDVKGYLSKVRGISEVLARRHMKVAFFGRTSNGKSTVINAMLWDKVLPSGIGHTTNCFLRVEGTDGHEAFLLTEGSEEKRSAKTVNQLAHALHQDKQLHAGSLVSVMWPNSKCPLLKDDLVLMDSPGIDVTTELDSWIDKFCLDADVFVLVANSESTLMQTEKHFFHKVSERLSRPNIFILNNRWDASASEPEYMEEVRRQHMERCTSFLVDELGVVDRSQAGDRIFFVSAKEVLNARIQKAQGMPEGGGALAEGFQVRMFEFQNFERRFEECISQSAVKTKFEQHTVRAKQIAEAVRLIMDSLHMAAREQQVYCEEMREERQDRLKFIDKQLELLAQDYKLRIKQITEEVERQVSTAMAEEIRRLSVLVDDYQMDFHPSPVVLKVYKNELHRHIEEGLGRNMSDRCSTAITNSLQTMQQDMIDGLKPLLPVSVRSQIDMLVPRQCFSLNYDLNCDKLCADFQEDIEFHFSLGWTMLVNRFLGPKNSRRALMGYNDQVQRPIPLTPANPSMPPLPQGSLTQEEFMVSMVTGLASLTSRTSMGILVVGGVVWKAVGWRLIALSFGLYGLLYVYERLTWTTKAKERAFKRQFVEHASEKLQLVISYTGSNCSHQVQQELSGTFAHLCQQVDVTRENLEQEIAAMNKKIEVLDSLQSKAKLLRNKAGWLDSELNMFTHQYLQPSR
Briefly: proximity ligation; Duolink PLA on fixed HiPSC-CMs, baseline and H/R; also with shDIAPH1, shAGER, Latrunculin B, RAGE229, CML-AGE, ER-Tracker co-staining.

The target of test [3] is T3, MFN1, endogenous human (human (endogenous in HiPSC-CMs)) (UniProt Q8IWA4).
T3 sequence: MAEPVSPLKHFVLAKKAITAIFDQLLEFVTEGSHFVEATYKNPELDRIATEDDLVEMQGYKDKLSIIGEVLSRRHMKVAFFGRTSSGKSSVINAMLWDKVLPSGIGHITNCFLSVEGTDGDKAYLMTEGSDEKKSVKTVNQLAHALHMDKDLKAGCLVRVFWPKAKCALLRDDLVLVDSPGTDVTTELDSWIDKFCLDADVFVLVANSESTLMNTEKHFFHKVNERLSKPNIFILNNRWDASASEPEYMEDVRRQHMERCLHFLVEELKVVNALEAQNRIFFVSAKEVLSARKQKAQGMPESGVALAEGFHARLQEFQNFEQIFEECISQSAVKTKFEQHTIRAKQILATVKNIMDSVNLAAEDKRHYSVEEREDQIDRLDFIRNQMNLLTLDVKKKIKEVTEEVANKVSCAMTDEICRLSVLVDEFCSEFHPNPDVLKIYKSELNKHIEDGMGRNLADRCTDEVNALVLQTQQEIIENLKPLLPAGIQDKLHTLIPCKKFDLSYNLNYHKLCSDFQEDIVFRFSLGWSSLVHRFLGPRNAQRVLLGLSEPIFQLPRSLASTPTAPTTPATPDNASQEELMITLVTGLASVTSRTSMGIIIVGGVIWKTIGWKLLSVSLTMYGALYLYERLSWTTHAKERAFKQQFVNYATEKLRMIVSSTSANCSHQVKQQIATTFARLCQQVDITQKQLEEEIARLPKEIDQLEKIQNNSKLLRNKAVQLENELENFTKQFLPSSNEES
Described as above.

Test [4] deals with VDAC1, endogenous (human (endogenous in HiPSC-CMs, by context)) (UniProt P21796). Described as above.
The target in test [5] is RhoA, endogenous (human (endogenous in HiPSC-CMs, by context)) (UniProt P61586). Described as above.
Test [6] deals with GRP75, endogenous (human (endogenous in HiPSC-CMs, by context)) (UniProt P38646). Described as above.
For test [7], the target named is T2, Mitofusin-2 (MFN2), endogenous human (human (endogenous in HiPSC-CMs, HMVECs, human heart)). In words: co-IP; HiPSC-CMs (shScr) exposed to H/R; 200 µg lysate, 2 µg antibody to DIAPH1 or MFN2 overnight, agarose A/G beads, Western blot for MFN2, DIAPH1 or MFN1. In general terms: Immunoblotting shows a protein as a band on a membrane.
For test [8] the target is unchanged. Briefly: proximity ligation; Duolink PLA on paraffin sections of human heart biopsies (ischemic cardiomyopathy and control).
Test [9] has the same target. In words: proximity ligation; Duolink PLA on fixed human microvascular endothelial cells (HMVECs), shScr against shDIAPH1.
Test [10] has the same target. Briefly: proximity ligation; Duolink PLA on fixed HiPSC-CMs, baseline and H/R; also with shDIAPH1, shAGER, Latrunculin B, RAGE229, CML-AGE, ER-Tracker co-staining. The source holds these as a separate data set.

These are yes or no findings as the source states them, for the method shown. For some of these results: Binding seen in cells or lysates may run through a third protein. Some results given as binding are weak or reduced against the parent protein; the word gives no strength. For some of these results: Sequences can lack the tags named with a protein.

As to “Diaphanous Inhibitory Domain (DID) of human protein diaphanous homolog 1, residues 142-380 (from UniProt O60610 142-380) (domain or fragment)”, the binding result in test [1] is recorded as “binds”.
For the molecule “Diaphanous-1 (DIAPH1), endogenous human (from UniProt O60610 1-1272)”, the binding result in test [2] was “binds”; in test [3], “no binding”; in test [4], “no binding”; in test [5], “binds weakly”; in test [6], “no binding”; in test [7], “binds”. Further, the binding result in test [8] and in test [9] was “binds” throughout.

B1: DIAPH2, endogenous (protein, UniProt O60879 1-1101)
chain: MEQPGAAASGAGGGSEEPGGGRSNKRSAGNRAANEEETKNKPKLNIQIKTLADDVRDRITSFRKSTVKKEKPLIQHPIDSQVAMSEFPAAQPLYDERSLNLSEKEVLDLFEKMMEDMNLNEEKKAPLRNKDFTTKREMVVQYISATAKSGGLKNSKHECTLSSQEYVHELRSGISDEKLLNCLESLRVSLTSNPVSWVNNFGHEGLGLLLDELEKLLDKKQQENIDKKNQYKLIQCLKAFMNNKFGLQRILGDERSLLLLARAIDPKQPNMMTEIVKILSAICIVGEENILDKLLGAITTAAERNNRERFSPIVEGLENQEALQLQVACMQFINALVTSPYELDFRIHLRNEFLRSGLKTMLPDLKEKENDELDIQLKVFDENKEDDLTELSHRLNDIRAEMDDMNEVYHLLYNMLKDTAAENYFLSILQHFLLIRNDYYIRPQYYKIIEECVSQIVLHCSGMDPDFKYRQRLDIDLTHLIDSCVNKAKVEESEQKAAEFSKKFDEEFTARQEAQAELQKRDEKIKELEAEIQQLRTQAQVLSSSSGIPGPPAAPPLPGVGPPPPPPAPPLPGGAPLPPPPPPLPGMMGIPPPPPPPLLFGGPPPPPPLGGVPPPPGISLNLPYGMKQKKMYKPEVSMKRINWSKIEPTELSENCFWLRVKEDKFENPDLFAKLALNFATQIKVQKNAEALEEKKTGPTKKKVKELRILDPKTAQNLSIFLGSYRMPYEDIRNVILEVNEDMLSEALIQNLVKHLPEQKILNELAELKNEYDDLCEPEQFGVVMSSVKMLQPRLSSILFKLTFEEHINNIKPSIIAVTLACEELKKSESFNRLLELVLLVGNYMNSGSRNAQSLGFKINFLCKIRDTKSADQKTTLLHFIADICEEKYRDILKFPEELEHVESASKVSAQILKSNLASMEQQIVHLERDIKKFPQAENQHDKFVEKMTSFTKTAREQYEKLSTMHNNMMKLYENLGEYFIFDSKTVSIEEFFGDLNNFRTLFLEAVRENNKRREMEEKTRRAKLAKEKAEQEKLERQKKKKQLIDINKEGDETGVMDNLLEALQSGAAFRDRRKRIPRNPDNRRVPLERSRSRHNGAISSK
On to B1, for which the binding entry in test [10] was “no binding”.

Values taken from article PMC10616211.
